Test results published in PMC12998938, “Neutrophil store-operated Ca^2+ entry: A correctable biomarker of cystic fibrosis lung disease progression” (Journal of cystic fibrosis : official journal of the …, 2025).

Test system: SOCE in CF neutrophils vs FEV1pp
Assay: Correlation of thapsigargin-induced Ca2+ response with lung function (FEV1pp)
Set-up: species or system human
Settings: pwCF, linear regression

Molecule	correlation of peak thapsigargin-induced Ca2+ entry with FEV1pp (Fig. 5B)	correlation of ELD607-sensitive Ca2+ influx with FEV1pp (Fig. 5D)	correlation of ELD607-insensitive fraction with FEV1pp (Fig. 5F)
C/C=C(/C)C(=O)O[C@H]1C(C)=C2[C@H]([C@@H]1OC(=O)CCCCCCC)[C@@](C)(OC(C)=O)C[C@H](OC(=O)CCC)[C@@]1(O)[C@H]2OC(=O)[C@@]1(C)O [thapsigargin, reference compound]	significant inverse correlation with lung function	–	–
VHDIVNMLIRG [ELD607, size-optimized SPLUNC1/α6 peptidomimetic]	–	inversely correlated against FEV1pp	did not significantly correlate with lung function
